Measured values taken from PubChem BioAssay AID493014 (National Center for Advancing Translational Sciences (NCATS), 2011).
This is one part of the list. Further columns of the screen follow, without active or inactive calls. Most of these compounds were active or inconclusive in the main read-out, so they are no random draw. The note in brackets gives the kind of curve behind each potency; many fits are weak.

Experiment: qHTS Assay to Find Inhibitors of Chronic Active B-Cell Receptor Signaling
Settings: ABC-DLBCL IkBa-CBG/CBR reporter, luminescence ratio (green luciferase fused to IkBa over red control in TMD8 lymphoma cells), 4 h
In short: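 Concentration-response series (up to 46 uM) were applied to TMD8 dual-reporter cells for 4 h at 37C with doxycycline. Green/red ratio, after filter-overlap correction, defined %Activity; red signal alone was normalised to basal cells and zero luminescence.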

[1] = measured here: CBR red luminescence, cell number
[2] = measured here: IkBa-CBG green luminescence

| SMILES | AC50 [1] | AC50 [2] |
| --- | --- | --- |
| Cc1cc(C(=O)COC(=O)Cc2n[nH]c(=O)c3ccccc23)c(C)n1-c1ccc2c(c1)OCCO2 | 29.1 µM [falling, single point] |  |
| CCOC(=O)CCC(=O)Nc1cc(S(=O)(=O)N2CCOCC2)ccc1N1CCCCC1 | 16.4 µM [rising, partial curve, poor fit] |  |
| CCC(C)NC(=O)c1cc(Cl)ccc1OC (centres undefined) | 16.4 µM [rising, single point] |  |
| CCOc1ccc(Br)cc1S(=O)(=O)Nc1ccc(C(=O)OCC(=O)N(C)c2ccccc2)cc1 | 8.2 µM [falling, partial curve, poor fit] |  |
| CCCN1C(=O)/C(=C/c2ccccc2OCc2ccc(C(=O)O)cc2)NC1=S | 10 µM [falling, partial curve, poor fit] |  |
| Cc1cc(C(=O)C(=O)N(C)C)c(C)n1-c1ccc(Cl)c(Cl)c1 | 7.08 µM [falling, partial curve, poor fit] |  |
| CCc1nn2c(N)c(/C=C3\C=Nc4ccccc43)c(=O)nc2s1 | 0.731 µM [rising, partial curve] |  |
| CC(C)Nc1nc2nonc2nc1Nc1ccccc1 | 12.6 µM [falling, partial curve, poor fit] |  |
| Cc1ccccc1C(=O)c1cccn1CC(=O)NCCCN1CCc2ccccc2C1 | 35.5 µM [falling, partial curve, poor fit] |  |
| Fc1ccc2c(c1)C(c1ccncc1)=NNC(c1ccc(Br)cc1)=N2 | 32.6 µM [falling, single point] |  |
| Cc1cccc(NC(=S)NC2CCCC2)c1 | 3.66 µM [rising, single point] | 14.6 µM [falling, partial curve, poor fit] |
| O=C(NC1CCCCC1)N1CCN(c2ncccn2)CC1 | 16.4 µM [falling, partial curve, poor fit] |  |
| CN(Cc1ccsc1)C(=O)CCc1nnc(CCCc2ccccc2)o1 | 1.78 µM [rising, full curve, poor fit] |  |
| Cc1noc(C)c1CSc1ccc2ccccc2n1 |  | 18.4 µM [falling, partial curve, poor fit] |
| COc1ccc(OC)c(C2C(C#N)=C(N)Oc3c2c(C)nn3-c2cccc(Cl)c2)c1 (centres undefined) |  | 11.2 µM [rising, partial curve, poor fit] |
| Cc1cc(C(=O)COc2ccccc2[N+](=O)[O-])c(C)n1-c1cccc(S(=O)(=O)N2CCOCC2)c1 | 16.4 µM [falling, partial curve, poor fit] |  |
| COc1ccc(NC(=O)c2cc(N3C(=O)C4C5CCC(C5)C4C3=O)ccc2Cl)c(OC)c1 (centres undefined) | 35.5 µM [falling, partial curve, poor fit] |  |
| COc1ccc(C2CC(C(F)(F)F)n3ncc(C(=O)NCC4CCCO4)c3N2)cc1OC (centres undefined) | 20 µM [rising, single point] |  |
| O=C(Nc1ccc2c(c1)CCC2)c1cccc(S(=O)(=O)Nc2ccccc2Cl)c1 | 29.1 µM [falling, single point] |  |
| CC(C)(C)c1ccc(CSc2nnc(-c3ccccn3)n2Cc2ccco2)cc1 | 29.1 µM [falling, single point] |  |
| O=C(NCc1ccccc1)c1ccc2c(=O)n(CCCN3CCCC3=O)c(=S)[nH]c2c1 | 0.13 µM [rising, full curve, poor fit] |  |

| SMILES | AC50 [1] | AC50 [2] |
| --- | --- | --- |
| CCOC(=O)c1cnc2ccccc2c1Nc1cccc(OC)c1 | 14.1 µM [falling, partial curve, poor fit] |  |
| Cc1sc(NC(=O)CS(=O)(=O)c2ccccc2)c(C(N)=O)c1C | 18.4 µM [falling, single point] |  |
| CS(=O)(=O)N(CC(=O)NCCSc1ccc(Cl)cc1)c1ccc2c(c1)OCO2 | 2.31 µM [rising, partial curve, poor fit] |  |
| COc1ccc(CNC(=S)NCc2ccc(F)cc2)cc1 | 35.5 µM [falling, single point] |  |
| Cc1onc(-c2ccccc2Cl)c1C(=O)Nc1nc2c(s1)CCCC2 | 11.2 µM [falling, partial curve] |  |
| COc1ccc(NC(=O)C(=O)Nc2cccc3cccnc23)cc1OC | 0.316 µM [falling, full curve, poor fit] |  |
| CCN(CC)c1ccc(/C=C2/SC(=O)N(C(C)C)C2=O)o1 | 20.6 µM [falling, partial curve] |  |
| O=C(O)CSc1cc(C(F)(F)F)nc(-c2ccccn2)n1 | 3.55 µM [falling, partial curve, poor fit] |  |
| Cn1ncc2c(Nc3ccc(-c4ccccc4)cc3)ncnc21 | 3.98 µM [rising, partial curve] |  |
| COCCNC(=O)Cn1cc(/C=N/NC(=O)c2ccc(Oc3ccc(O)cc3)cc2)c2ccccc21 | 14.1 µM [falling, single point] |  |
| CCN1CCN(c2cc(-c3ccccc3)nc3cc(-c4cccc(F)c4)nn23)CC1 | 5.17 µM [falling, partial curve, poor fit] |  |
| Cc1cc(-c2ccccc2)nc(N/N=C/c2ccc(O)cc2)n1 | 18.4 µM [falling, partial curve] |  |
| N#Cc1ccccc1NC(=O)c1ccc(-c2ccccc2Cl)o1 | 23.1 µM [falling, single point] |  |
| CC(C)Cn1c(=O)[nH]c(=O)c2c(C(F)(F)F)cc(-c3ccccc3)nc21 | 6.31 µM [rising, single point] |  |
| CCC(=NCc1ccc(Cl)c(Cl)c1)c1nc(-c2ccco2)oc1O | 13 µM [falling, partial curve] |  |
| O=C(NCCc1ccccc1F)C(=O)Nc1nccs1 | 2.82 µM [falling, full curve, poor fit] |  |
| CCOc1ccccc1CNC(=O)CCn1ccc2cc(S(=O)(=O)N3CCCCC3)ccc21 | 2.82 µM [rising, partial curve, poor fit] |  |
| CN(C)S(=O)(=O)c1ccc(N2CCCC2)c(C(=O)NC(c2ccccc2)c2ccccc2)c1 | 25.9 µM [falling, partial curve, poor fit] |  |
| Cc1ccc(C(=O)Nc2ccc(O)cc2C(=O)O)cc1C | 1.03 µM [falling, full curve] |  |
| Cc1cccc(NC(=O)c2cc3ccccc3oc2=O)c1 | 15.8 µM [falling, single point] |  |
| O=C(Nc1nc2ccccc2s1)C1CCN(C(=O)c2ccco2)CC1 | 2 µM [falling, partial curve, poor fit] |  |

Structural class, the entries above with two or more sulfur atoms.

| SMILES | AC50 [1] | AC50 [2] |
| --- | --- | --- |
| Cc1sc(NC(=O)CS(=O)(=O)c2ccccc2)c(C(N)=O)c1C | 18.4 µM [falling, single point] |  |
| CS(=O)(=O)N(CC(=O)NCCSc1ccc(Cl)cc1)c1ccc2c(c1)OCO2 | 2.31 µM [rising, partial curve, poor fit] |  |

Remaining list, next part.

| SMILES | AC50 [1] | AC50 [2] |
| --- | --- | --- |
| CCN(CC)CCn1c(=N)n(CCOc2ccccc2)c2ccccc21 | 18.4 µM [falling, single point] |  |
| CCOC(=O)c1cc(-c2ccccc2)n(CCC(=O)Nc2nc3c(C)cccc3s2)c1C | 2.24 µM [falling, partial curve, poor fit] |  |
| O=C(N1CCCCCC1)N1CCN(S(=O)(=O)N2CCOCC2)CC1 | 13 µM [rising, partial curve, poor fit] |  |
| O=C(Nc1sc2c(c1C(=O)O)CCCCC2)c1ccco1 | 1.12 µM [falling, full curve] |  |
| CC(C)NC(=O)NC(=O)COc1c(F)c(F)cc(F)c1F | 0.82 µM [rising, partial curve, poor fit] |  |
| COCCCNC(=O)c1ccc(Cn2c(=O)c3ccccc3n(Cc3ccccc3C#N)c2=O)cc1 | 1.03 µM [rising, full curve, poor fit] |  |
| COC(=O)N/N=C/c1cn(CC(C)COc2ccccc2)c2ccccc12 (centres undefined) | 25.9 µM [falling, single point] |  |
| O=C(CC1SC(=O)N(c2ccccc2)C1=O)Nc1cccc2ccccc12 (centres undefined) | 20 µM [falling, single point] |  |
| CN(C(=O)CSc1nc(-c2ccc(C(C)(C)C)cc2)c(C#N)c(=O)[nH]1)C1CCCCC1 | 17.8 µM [rising, single point] |  |
| COc1ccc(-c2csc(NC(=O)C3COc4ccccc4O3)n2)cc1OC (centres undefined) | 15.8 µM [falling, single point] |  |
| CCOC(=O)N1CCC(N2Cc3cccc(C(=O)N4CCN(c5cccc(C)c5C)CC4)c3C2=O)CC1 | 8.91 µM [falling, partial curve] |  |
| NS(=O)(=O)c1ccc(N/N=C/c2cn(-c3ccccc3)nc2-c2ccccc2)c([N+](=O)[O-])c1 | 2.82 µM [rising, partial curve, poor fit] |  |
| Cc1cc(-c2cccs2)c2c(n1)sc1c(=O)[nH]c(=O)[nH]c12 | 32.6 µM [rising, single point] |  |
| O=C(COC(=O)c1ccccc1Br)Nc1nnc(-c2ccccc2)o1 | 20.6 µM [falling, single point] |  |
| CCCOC(=O)c1ccc(-c2ccc(C=O)o2)cc1 | 14.6 µM [falling, partial curve] |  |
| COc1cc(NC(=O)COC(=O)c2[nH]c(C)c(C(C)=O)c2C)cc(OC)c1 | 18.4 µM [rising, partial curve, poor fit] |  |
| COC(=O)C(C(=O)OC)c1ccc(-n2cccc2)cc1 | 0.631 µM [rising, full curve, poor fit] |  |
| CCn1c(=O)c(C(=O)Nc2ccccn2)c(O)c2ccccc21 | 0.355 µM [falling, full curve, poor fit] |  |
| C=C(C)CNC(=S)N/N=C(\C)c1ccc(OC)cc1 | 9.2 µM [rising, partial curve] | 18.4 µM [falling, single point] |
| CCOc1ccc(NC(=O)NCc2ccc3c(c2)OCO3)cc1 | 7.94 µM [falling, partial curve, poor fit] |  |
